# Laboratory results from patent US20150197550A1 (UNIVERSITY OF ULSTER, priority 2012, published 2015).
# Part of at least one peptide drawing is inferred or uncertain, most often the ends. Some compounds share one wording; it may come from a single statement. Square brackets hold non-standard residues; d marks the D form. Ends that are not written are not given here. Peptide text beside a SMILES is read from it.
# Key:
# BRIN-BD11 cells = experiment: Acute insulin secretion from BRIN-BD11 clonal β cells, insulin by radioimmunoassay; assay type: cell-based, rat; settings: 5.6 mM glucose, 20 min, 10^-12 to 10^-6 M; compared with 5.6 mM glucose alone
# Swiss NIH mice = experiment: Acute glucose tolerance test in Swiss NIH mice; assay type: in vivo, mouse; settings: for blood glucose compared to glucose alone: 25 nmol/kg body weight i.p. with glucose 18 mmol/kg
Compound,insulin secretion (BRIN-BD11 cells),blood glucose compared to glucose alone (Swiss NIH mice),plasma glucose at later time points compared to glucose alone or glucose with human glucagon (Swiss NIH mice; 25 nmol/kg i.p. with glucose 18 mmol/kg)
"YAPGTFISDYSIAMDKIHQQDFVNWLLAQKGKKNDWKHNITQ [(Pro^3) GIP, reference compound]",no effect,–,–
"CSCC[C@H](NC(=O)[C@H](Cc1ccc(O)cc1)NC(=O)[C@H](CCCCN)NC(=O)[C@H](CO)NC(=O)[C@H](Cc1ccc(O)cc1)NC(=O)[C@H](CC(=O)O)NC(=O)[C@H](CO)NC(=O)[C@@H](NC(=O)[C@H](Cc1ccccc1)NC(=O)[C@@H](NC(=O)CNC(=O)[C@H](CCC(=O)O)NC(=O)[C@@H](C)NC(=O)[C@@H](N)Cc1c[nH]cn1)[C@@H](C)O)[C@@H](C)O)C(=O)N[C@@H](CC(=O)O)C(=O)N[C@@H](CC(N)=O)C(=O)N[C@@H](CCCNC(=N)N)C(=O)N[C@@H](CCCNC(=N)N)C(=O)N[C@@H](C)C(=O)N[C@@H](CCCCN)C(=O)N[C@@H](CC(=O)O)C(=O)N[C@@H](Cc1ccccc1)C(=O)N[C@H](C(=O)N[C@@H](CCC(N)=O)C(=O)N[C@@H](Cc1c[nH]c2ccccc12)C(=O)N[C@@H](CC(C)C)C(=O)N[C@@H](CCSC)C(=O)N[C@@H](CC(N)=O)C(=O)N[C@H](C(=O)N1CCC[C@H]1C(=O)N[C@@H](CO)C(=O)N[C@@H](CO)C(=O)NCC(=O)N[C@@H](C)C(=O)N1CCC[C@H]1C(=O)N1CCC[C@H]1C(=O)N1CCC[C@H]1C(=O)N[C@@H](CO)C(N)=O)[C@@H](C)O)C(C)C [(D-A^2) dogfish glucagon exendin, (D-A^2) dogfish glucagon exendin end] (H-H[dA]EGTFTSDYSKYMDNRRAKDFVQWLMNTPSSGAPPPS-NH2; N-terminus assumed)",–,significantly reduced blood glucose,reduce plasma glucose levels at later time points
"CC[C@H](C)[C@H](NC(=O)[C@H](Cc1ccccc1)NC(=O)[C@@H](NC(=O)CNC(=O)[C@H](CCC(=O)O)NC(=O)[C@@H](C)NC(=O)[C@@H](N)Cc1c[nH]cn1)[C@@H](C)O)C(=O)N[C@@H](CO)C(=O)N[C@@H](CC(=O)O)C(=O)N[C@@H](Cc1ccc(O)cc1)C(=O)N[C@@H](CO)C(=O)N[C@@H](CCCCN)C(=O)N[C@@H](Cc1ccc(O)cc1)C(=O)N[C@@H](CCSC)C(=O)N[C@@H](CC(=O)O)C(=O)N[C@@H](CC(N)=O)C(=O)N[C@@H](CCCNC(=N)N)C(=O)N[C@@H](CCCNC(=N)N)C(=O)N[C@@H](C)C(=O)N[C@@H](CCCCN)C(=O)N[C@@H](CC(=O)O)C(=O)N[C@@H](Cc1ccccc1)C(=O)N[C@H](C(=O)N[C@@H](CCC(N)=O)C(=O)N[C@@H](Cc1c[nH]c2ccccc12)C(=O)N[C@@H](CC(C)C)C(=O)N[C@@H](CCSC)C(=O)N[C@@H](CC(N)=O)C(=O)N[C@H](C(=O)O)[C@@H](C)O)C(C)C [(D-A^2 I^7) dogfish glucagon, (D-A^2I^7) dogfish glucagon] (H-H[dA]EGTFISDYSKYMDNRRAKDFVQWLMNT-OH; N-terminus and C-terminus assumed)",–,significantly reduced blood glucose,–
